We go through four molecules from paper PMC5041976.

These are yes or no findings as the source states them, for the method shown. Binding calls can cover weak binding; strength is not graded here. Tags and fused reporters may be left off the sequences shown. For some of these results: In cells and extracts the contact can be indirect.

One experiment addresses T1, HA-TCF21 (human) (UniProt O43680).
T1 sequence: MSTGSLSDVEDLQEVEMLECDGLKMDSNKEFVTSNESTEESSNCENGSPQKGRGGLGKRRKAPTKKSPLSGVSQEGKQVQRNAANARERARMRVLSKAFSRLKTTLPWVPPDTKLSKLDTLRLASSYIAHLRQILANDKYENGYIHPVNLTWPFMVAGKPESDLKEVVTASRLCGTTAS
The experiment in a line: co-IP; HEK 293T cells co-transfected with two tagged proteins; IP by one tag (anti-GFP, anti-HA or anti-Flag), Western blot by the other tag; lysis in 50 mM Tris-HCl pH 7.4, 150 mM NaCl, 0.1% SDS, 1% NP-40, 0.5% sodium deoxycholate.

Another experiment deals with GST-ERα Δ2. The experiment in a line: pull-down; GST pull-down in vitro: purified His-TCF21 incubated with immobilized GST-ERα Δ2 or GST alone; bound proteins by Western blot (Pierce GST Protein Interaction Pull-Down Kit); both purified. A general note: Immunoblotting shows a protein as a band on a membrane.

Regarding Flag-tagged ERα Δ1 (domain or fragment), in the experiment with HA-TCF21 (human), the binding result is reported as “no binding”. The same measure, in the same setting: the result for Flag-tagged ERα Δ2 (domain or fragment) reads “binds”; that for Flag-tagged ERα Δ3 (domain or fragment), “no binding”.

B1: His-TCF21 (protein, UniProt O43680 1-179)
chain: MSTGSLSDVEDLQEVEMLECDGLKMDSNKEFVTSNESTEESSNCENGSPQKGRGGLGKRRKAPTKKSPLSGVSQEGKQVQRNAANARERARMRVLSKAFSRLKTTLPWVPPDTKLSKLDTLRLASSYIAHLRQILANDKYENGYIHPVNLTWPFMVAGKPESDLKEVVTASRLCGTTAS
Consider B1, for which the binding entry in the experiment with GST-ERα Δ2 was “binds”.
